The list shows a part of the results.
Compound: Cc1cc(ccc1-c1ccccc1)C(=O)N1CCCN(CC1)C(=O)CCl [compound 10]
Experiment: probe-labelled cysteine peptide fold change vs DMSO (competition) (log2 fold change); higher = less target engagement (more negative = stronger competition)
Conditions: THP-1, incubation time: 4 h
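Further: competitive profiling in live THP-1 cells: cysteine peptides tagged with an iodoacetamide desthiobiotin (IA-DTB) probe, intensity after compound treatment relative to DMSO-treated cells.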

Chains of the proteins cited; added tags and fusions are not shown. Lines headed by an entry give the natural chain unless they say otherwise; changes in a name come on top.
UniProt Q9UQE7: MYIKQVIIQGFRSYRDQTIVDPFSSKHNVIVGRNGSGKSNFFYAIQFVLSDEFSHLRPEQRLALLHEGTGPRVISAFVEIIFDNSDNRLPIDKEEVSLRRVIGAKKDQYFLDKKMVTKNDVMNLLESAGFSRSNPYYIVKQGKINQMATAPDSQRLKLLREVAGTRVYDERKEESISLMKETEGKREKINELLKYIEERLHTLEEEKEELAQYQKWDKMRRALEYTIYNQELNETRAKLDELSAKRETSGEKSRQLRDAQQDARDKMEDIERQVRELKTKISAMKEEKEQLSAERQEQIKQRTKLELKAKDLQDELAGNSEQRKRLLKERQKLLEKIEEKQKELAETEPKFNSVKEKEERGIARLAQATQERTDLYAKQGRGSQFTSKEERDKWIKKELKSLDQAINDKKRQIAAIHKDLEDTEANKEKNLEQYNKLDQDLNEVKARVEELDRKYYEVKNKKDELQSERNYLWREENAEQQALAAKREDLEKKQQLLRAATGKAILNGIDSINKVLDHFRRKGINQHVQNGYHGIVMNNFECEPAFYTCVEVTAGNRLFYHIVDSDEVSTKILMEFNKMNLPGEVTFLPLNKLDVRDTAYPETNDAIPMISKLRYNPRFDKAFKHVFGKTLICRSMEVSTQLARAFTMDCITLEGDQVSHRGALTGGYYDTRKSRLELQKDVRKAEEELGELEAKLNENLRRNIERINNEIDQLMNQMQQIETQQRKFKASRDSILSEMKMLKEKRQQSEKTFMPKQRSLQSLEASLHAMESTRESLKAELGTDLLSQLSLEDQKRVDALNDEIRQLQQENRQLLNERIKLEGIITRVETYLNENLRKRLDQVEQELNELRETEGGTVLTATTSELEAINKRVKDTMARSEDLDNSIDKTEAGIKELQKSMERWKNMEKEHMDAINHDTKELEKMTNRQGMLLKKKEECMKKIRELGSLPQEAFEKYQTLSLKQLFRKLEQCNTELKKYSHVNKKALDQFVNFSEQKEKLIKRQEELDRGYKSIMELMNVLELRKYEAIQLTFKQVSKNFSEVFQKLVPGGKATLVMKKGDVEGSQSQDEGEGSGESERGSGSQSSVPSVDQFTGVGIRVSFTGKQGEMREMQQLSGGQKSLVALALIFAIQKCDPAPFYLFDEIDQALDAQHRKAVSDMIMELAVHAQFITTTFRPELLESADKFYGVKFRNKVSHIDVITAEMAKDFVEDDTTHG
UniProt Q16637, whole entry, looked up: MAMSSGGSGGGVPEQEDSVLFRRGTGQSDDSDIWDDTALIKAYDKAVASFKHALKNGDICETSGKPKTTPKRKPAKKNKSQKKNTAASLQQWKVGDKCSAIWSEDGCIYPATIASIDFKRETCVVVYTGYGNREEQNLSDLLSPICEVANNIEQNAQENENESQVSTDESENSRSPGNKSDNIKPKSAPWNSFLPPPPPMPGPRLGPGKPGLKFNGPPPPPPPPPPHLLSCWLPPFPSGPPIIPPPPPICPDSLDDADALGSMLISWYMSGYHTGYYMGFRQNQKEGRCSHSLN
UniProt P09234, whole entry, looked up: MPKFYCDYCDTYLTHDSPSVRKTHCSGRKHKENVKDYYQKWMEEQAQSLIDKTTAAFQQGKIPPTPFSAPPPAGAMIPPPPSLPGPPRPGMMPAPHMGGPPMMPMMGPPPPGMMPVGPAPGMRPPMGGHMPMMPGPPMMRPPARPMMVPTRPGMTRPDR
UniProt P52788: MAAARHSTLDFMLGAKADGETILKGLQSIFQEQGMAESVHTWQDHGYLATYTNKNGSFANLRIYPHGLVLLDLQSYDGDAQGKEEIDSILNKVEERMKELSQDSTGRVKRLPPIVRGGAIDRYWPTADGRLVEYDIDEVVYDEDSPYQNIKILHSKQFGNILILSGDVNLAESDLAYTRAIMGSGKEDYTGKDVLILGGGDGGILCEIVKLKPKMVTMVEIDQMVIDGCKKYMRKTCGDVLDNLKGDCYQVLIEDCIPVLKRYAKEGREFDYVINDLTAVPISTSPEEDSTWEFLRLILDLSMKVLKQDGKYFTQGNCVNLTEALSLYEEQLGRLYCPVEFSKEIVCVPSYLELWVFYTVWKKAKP
UniProt Q14BN4: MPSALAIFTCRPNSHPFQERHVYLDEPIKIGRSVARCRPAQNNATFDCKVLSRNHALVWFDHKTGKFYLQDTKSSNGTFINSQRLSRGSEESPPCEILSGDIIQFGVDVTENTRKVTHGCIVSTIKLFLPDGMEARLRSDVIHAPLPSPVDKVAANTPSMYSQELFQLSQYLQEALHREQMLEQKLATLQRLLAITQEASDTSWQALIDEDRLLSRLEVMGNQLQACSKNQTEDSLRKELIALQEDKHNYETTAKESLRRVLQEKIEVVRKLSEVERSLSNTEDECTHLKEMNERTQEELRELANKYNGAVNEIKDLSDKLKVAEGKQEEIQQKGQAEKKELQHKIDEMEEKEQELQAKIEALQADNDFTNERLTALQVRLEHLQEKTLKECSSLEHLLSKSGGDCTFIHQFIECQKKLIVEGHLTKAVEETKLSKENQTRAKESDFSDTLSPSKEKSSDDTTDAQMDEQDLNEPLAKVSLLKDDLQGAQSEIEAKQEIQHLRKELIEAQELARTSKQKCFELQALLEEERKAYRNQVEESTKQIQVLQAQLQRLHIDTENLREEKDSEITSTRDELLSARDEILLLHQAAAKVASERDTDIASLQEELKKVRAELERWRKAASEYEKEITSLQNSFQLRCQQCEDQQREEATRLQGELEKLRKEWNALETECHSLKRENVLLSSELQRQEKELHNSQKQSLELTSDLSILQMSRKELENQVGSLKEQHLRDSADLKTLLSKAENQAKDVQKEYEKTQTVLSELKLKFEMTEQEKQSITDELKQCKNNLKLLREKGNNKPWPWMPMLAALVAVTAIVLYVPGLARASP
UniProt A6NHR9: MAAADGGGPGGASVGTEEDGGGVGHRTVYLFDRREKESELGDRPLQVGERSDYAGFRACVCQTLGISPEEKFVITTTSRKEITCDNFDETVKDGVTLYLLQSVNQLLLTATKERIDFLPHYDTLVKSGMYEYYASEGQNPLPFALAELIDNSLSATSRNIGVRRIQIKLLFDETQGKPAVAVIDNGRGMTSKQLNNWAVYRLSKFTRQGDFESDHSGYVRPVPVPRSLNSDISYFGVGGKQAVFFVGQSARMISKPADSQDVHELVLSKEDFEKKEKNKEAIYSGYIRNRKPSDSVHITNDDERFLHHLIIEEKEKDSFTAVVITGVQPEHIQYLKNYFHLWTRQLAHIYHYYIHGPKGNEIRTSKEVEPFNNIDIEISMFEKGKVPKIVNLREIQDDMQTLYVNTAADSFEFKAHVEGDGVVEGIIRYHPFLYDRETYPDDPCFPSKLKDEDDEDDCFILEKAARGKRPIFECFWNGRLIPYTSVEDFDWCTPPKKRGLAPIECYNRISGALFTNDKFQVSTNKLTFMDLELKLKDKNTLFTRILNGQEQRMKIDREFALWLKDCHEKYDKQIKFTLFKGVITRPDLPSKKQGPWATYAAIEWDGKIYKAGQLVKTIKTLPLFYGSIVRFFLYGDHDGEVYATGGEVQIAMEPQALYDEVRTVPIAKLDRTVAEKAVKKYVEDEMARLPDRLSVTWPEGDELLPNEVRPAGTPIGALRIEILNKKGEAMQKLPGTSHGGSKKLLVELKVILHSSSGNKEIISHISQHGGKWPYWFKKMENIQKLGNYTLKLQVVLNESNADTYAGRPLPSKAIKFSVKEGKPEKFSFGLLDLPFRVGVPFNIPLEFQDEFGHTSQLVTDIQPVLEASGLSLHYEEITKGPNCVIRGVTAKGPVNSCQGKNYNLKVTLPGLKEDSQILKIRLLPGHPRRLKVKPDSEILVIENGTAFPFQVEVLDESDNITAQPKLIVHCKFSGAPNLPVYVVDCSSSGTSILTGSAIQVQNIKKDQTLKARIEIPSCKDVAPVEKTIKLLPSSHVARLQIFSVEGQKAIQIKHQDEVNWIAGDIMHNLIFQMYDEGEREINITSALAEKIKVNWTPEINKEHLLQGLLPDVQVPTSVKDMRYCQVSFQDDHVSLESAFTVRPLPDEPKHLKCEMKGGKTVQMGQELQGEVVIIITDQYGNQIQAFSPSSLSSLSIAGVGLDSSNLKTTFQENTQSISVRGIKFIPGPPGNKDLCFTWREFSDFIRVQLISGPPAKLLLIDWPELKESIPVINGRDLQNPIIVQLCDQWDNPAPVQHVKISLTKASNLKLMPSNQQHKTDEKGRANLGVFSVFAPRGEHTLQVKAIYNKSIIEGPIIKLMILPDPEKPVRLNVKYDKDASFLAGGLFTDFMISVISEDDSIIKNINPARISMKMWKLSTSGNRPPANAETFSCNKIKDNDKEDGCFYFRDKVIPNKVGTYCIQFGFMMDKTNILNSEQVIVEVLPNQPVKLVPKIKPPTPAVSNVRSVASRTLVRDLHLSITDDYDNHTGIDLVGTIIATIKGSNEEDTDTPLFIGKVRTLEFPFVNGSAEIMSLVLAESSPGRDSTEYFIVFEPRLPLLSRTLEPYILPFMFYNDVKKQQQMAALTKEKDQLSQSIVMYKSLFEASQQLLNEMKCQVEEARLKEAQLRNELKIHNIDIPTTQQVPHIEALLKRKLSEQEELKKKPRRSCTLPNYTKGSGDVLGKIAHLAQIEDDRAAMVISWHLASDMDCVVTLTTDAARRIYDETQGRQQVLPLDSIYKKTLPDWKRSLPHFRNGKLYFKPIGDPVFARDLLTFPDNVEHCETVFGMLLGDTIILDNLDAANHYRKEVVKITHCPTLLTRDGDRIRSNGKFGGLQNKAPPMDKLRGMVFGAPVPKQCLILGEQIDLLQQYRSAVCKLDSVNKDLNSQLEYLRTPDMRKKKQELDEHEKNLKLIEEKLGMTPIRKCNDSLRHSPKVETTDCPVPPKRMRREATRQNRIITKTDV
UniProt Q9H4L7: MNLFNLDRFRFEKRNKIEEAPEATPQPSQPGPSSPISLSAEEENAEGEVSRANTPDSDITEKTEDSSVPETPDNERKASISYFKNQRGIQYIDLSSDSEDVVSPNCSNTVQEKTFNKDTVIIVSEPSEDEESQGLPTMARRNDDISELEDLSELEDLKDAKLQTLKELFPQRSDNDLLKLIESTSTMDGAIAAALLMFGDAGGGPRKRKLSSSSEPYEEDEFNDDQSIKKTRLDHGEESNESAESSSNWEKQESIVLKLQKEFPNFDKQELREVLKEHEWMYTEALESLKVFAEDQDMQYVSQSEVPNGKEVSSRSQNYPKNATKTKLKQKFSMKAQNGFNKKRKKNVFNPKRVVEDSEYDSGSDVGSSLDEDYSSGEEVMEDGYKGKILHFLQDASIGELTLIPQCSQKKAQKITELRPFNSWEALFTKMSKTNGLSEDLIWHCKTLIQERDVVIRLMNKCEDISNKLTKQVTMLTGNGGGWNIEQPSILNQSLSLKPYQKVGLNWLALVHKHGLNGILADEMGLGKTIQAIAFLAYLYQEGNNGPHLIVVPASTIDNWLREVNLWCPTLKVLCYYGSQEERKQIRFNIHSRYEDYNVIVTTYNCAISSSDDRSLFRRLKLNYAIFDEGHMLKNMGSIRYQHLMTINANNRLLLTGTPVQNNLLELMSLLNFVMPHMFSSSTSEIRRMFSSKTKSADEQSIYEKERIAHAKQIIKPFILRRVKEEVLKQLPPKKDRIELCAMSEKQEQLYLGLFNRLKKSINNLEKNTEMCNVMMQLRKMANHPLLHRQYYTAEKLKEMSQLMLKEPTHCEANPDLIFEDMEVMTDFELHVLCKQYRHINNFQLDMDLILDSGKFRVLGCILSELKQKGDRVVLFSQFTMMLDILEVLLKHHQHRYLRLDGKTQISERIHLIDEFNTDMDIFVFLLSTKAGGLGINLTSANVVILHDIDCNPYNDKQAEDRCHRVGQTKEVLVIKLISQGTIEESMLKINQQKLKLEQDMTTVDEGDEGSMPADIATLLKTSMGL
UniProt Q8WWI5: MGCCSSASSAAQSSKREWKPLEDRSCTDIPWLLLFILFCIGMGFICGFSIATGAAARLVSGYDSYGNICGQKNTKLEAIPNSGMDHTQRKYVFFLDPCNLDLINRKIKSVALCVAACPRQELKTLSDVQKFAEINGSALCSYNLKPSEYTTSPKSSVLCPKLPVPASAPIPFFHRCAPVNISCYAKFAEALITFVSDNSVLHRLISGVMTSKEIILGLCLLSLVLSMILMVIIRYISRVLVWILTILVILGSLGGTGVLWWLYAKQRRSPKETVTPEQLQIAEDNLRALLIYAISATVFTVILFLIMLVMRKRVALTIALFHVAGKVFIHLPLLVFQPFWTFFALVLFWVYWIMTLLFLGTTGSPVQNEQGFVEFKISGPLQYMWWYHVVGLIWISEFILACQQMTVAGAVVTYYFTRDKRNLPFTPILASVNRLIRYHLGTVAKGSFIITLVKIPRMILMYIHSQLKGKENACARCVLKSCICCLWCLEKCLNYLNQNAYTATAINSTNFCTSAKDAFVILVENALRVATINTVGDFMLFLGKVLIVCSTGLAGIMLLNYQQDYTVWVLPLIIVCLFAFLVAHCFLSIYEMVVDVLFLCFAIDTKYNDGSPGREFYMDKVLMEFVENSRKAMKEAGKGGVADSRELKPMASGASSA

Row | Target | probe-labelled cysteine peptide fold change (10 µM) | probe-labelled cysteine peptide fold change (50 µM)
1 | SMC3_Q9UQE7_1134_CDPAPFYLFDEIDQALDAQHR (UniProt Q9UQE7) | 0.416 | 0.52
2 | SMN2_Q16637_60_NGDICETSGKPK (UniProt Q16637) | -0.198 | -0.473
3 | SLC9A3R2_Q15599_103_QLTCTEEMAQR (UniProt Q15599) | 0.222 | 0.0651
4 | SNRPC_P09234_25_THCSGR (UniProt P09234) | 0.23 | 0.238
5 | SMN2_Q16637_107_CSAIWSEDGCIYPATIASIDFKR (UniProt Q16637) | -0.198 | -0.213
6 | SLC39A8_Q9C0K1_113_FSVICPAVLQQLNFHPCEDRPK (UniProt Q9C0K1) | -0.103 | -0.0399
7 | SMARCB1_Q12824_350_NTGDADQWCPLLETLTDAEMEK (UniProt Q12824) | -0.108 | 0.0621
8 | SMC3_Q9UQE7_972_KLEQCNTELK (UniProt Q9UQE7) | 0.0921 | 0.174
9 | SMARCA5_O60264_1001_CNTLITLIER (UniProt O60264) | 0.123 | 0.462
10 | SMU1_Q2TAY7_219_SHVECAR (UniProt Q2TAY7) | -0.121 | 0.135
11 | SMARCC2_Q8TAQ2_486_LNPQEYLTSTACR (UniProt Q8TAQ2) | -0.115 | -0.00908
12 | SMS_P52788_248_GDCYQVLIEDCIPVLK (UniProt P52788) | 0.0426 | 0.0386
13 | SMG5_Q9UPR3_865_AQSAMSPYLVPDTQALCHHLPVIR (UniProt Q9UPR3) | 0.126 | -0.066
14 | SMAD4_Q13485_123+127_CDSVCVNPYHYER (UniProt Q13485) | 0.132 | 0.205
15 | SMAP1_Q8IYB5_85_SVNLDQWTAEQIQCMQDMGNTK (UniProt Q8IYB5) | -0.304 | 0.3
16 | SMYD5_Q6GMV2_70_ACDHCLR (UniProt Q6GMV2) | -0.0892 | -0.392
17 | SNRNP200_O75643_1592_FLHCTEK (UniProt O75643) | 0.134 | 0.133
18 | SMPD2_O60906_189_KADVVLLCGDLNMHPEDLGCCLLK (UniProt O60906) | -0.193 | 0.0371
19 | SND1_Q7KZF4_96_EVCFTIENK (UniProt Q7KZF4) | 0.11 | -0.0268
20 | SLMAP_Q14BN4_286_SLSNTEDECTHLK (UniProt Q14BN4) | -0.314 | -0.224

Row | Target | probe-labelled cysteine peptide fold change (10 µM) | probe-labelled cysteine peptide fold change (50 µM)
21 | SMCHD1_A6NHR9_897_GPVNSCQGK (UniProt A6NHR9) | -0.117 | -0.305
22 | SMARCA4_P51532_1046_ICNHPYMFQHIEESFSEHLGFTGGIVQGLDLYR (UniProt P51532) | -0.148 | 0.107
23 | SMARCAD1_Q9H4L7_772_NTEMCNVMMQLR (UniProt Q9H4L7) | -0.283 | -0.983
24 | SLK_Q9H2G2_86_SEEELEDYMVEIDILASCDHPNIVK (UniProt Q9H2G2) | 0.51 | 0.523
25 | SMC5_Q8IY18_176_VAALNIQVGNLCQFLPQDK (UniProt Q8IY18) | -0.236 | 0.0618
26 | SLMAP_Q14BN4_120_KVTHGCIVSTIK (UniProt Q14BN4) | 0.226 | 0.0448
27 | SNRPB_P14678_43_HMNLILCDCDEFRK (UniProt P14678) | 0.0505 | -0.113
28 | SMARCC1_Q92922_108_CFMDFK (UniProt Q92922) | -0.151 | -0.0801
29 | SMC4_Q9NTJ3_158_DIQSCTVEVHFQK (UniProt Q9NTJ3) | 0.0884 | 0.197
30 | SMCHD1_A6NHR9_1967_CNDSLR (UniProt A6NHR9) | -0.215 | -0.299
31 | SMC6_Q96SB8_385_DDEQLCK (UniProt Q96SB8) | 0.0125 | -0.0345
32 | SNRNP200_O75643_1471_KNVQNINLFVVDEVHLIGGENGPVLEVICSR (UniProt O75643) | 0.443 | 0.176
33 | SMS_P52788_206_DVLILGGGDGGILCEIVK (UniProt P52788) | 0.0241 | -0.0455
34 | SLC44A1_Q8WWI5_159_SSVLCPK (UniProt Q8WWI5) | -0.162 | 0.0545
35 | SMCHD1_A6NHR9_84_EITCDNFDETVK (UniProt A6NHR9) | -0.182 | -0.259
36 | SNRNP200_O75643_516_TNVALMCMLR (UniProt O75643) | 0.0138 | 0.196
37 | SMARCAD1_Q9H4L7_462_CEDISNK (UniProt Q9H4L7) | 0.0395 | 0.098
38 | SNRNP200_O75643_1580_LTAIDILTTCAADIQR (UniProt O75643) | -0.0527 | 0.0566
39 | SMC1A_Q14683_1210_AESLIGVYPEQGDCVISK (UniProt Q14683) | -0.118 | -0.0803

Reference: the supplement of paper PMC12067093, “Discovery and optimisation of a covalent ligand for TRIM25 and its application to targeted protein ubiquitination” (Chemical Science, 2025)
